PubChem BioAssay AID1224826 | NIAID | 2016

Purpose: 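Regulators of Tlr4 signalling leading to Tnf-alpha expression in macrophages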 (primary screen)
Cell system: RAW264.7 G9 macrophages from mouse bearing reporters for p65 (GFP) and the Tnf promoter (mCherry)
Knock-down reagent: siRNA pool against mouse genes, 100 nM
Time to read-out: 16 h of LPS stimulation, after 2 days of siRNA transfection
Treatment: bacterial lipopolysaccharide (Salmonella minnesota R595), 10 ng/ml
Measurement: 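Imaged Tnf reporter mCherry in nuclei, minus background, normalised per plate to the median and expressed as robust z-scores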
Scale: Tnf reporter robust z-score: higher = stronger Tnf promoter reporter signal after LPS
Active means: 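Called active when robust z-score is at most -1.3, matching the median of the Tlr4 knock-down control, or over 3; control wells and wells with under 50 cells never active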
Calls: active = Tnf reporter clearly lowered or raised; inactive = no clear change in Tnf reporter
This is a random part of about 17,000 reagents tested. About 1,110 of them (6.6%) count as active. 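Active means lowered or raised reporter signal; replicate intensities are raw and not normalised per plate.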 Not all columns of the deposit are shown.

Slc17a8 | fewer than 50 cells in well: fewer than 50 cells per well; well left out of calls; Call: inactive
Wac | Tnf reporter robust z-score: 3.5; fewer than 50 cells in well: enough cells in well; Call: active
Sim2 | Tnf reporter robust z-score: -0.35; fewer than 50 cells in well: enough cells in well; Call: inactive
4930524B15Rik | Tnf reporter robust z-score: -0.32; fewer than 50 cells in well: enough cells in well; Call: inactive
Vwc2l | Tnf reporter robust z-score: 0.25; fewer than 50 cells in well: enough cells in well; Call: inactive
Man1a | Tnf reporter robust z-score: -1.08; fewer than 50 cells in well: enough cells in well; Call: inactive
Tmprss7 | Tnf reporter robust z-score: 0.5; fewer than 50 cells in well: enough cells in well; Call: inactive
Serpind1 | Tnf reporter robust z-score: -0.67; fewer than 50 cells in well: enough cells in well; Call: inactive
Tcp1 | Tnf reporter robust z-score: 1.05; fewer than 50 cells in well: enough cells in well; Call: inactive
Ccr8 | Tnf reporter robust z-score: -0.39; fewer than 50 cells in well: enough cells in well; Call: inactive
Mavs | Tnf reporter robust z-score: 0.99; fewer than 50 cells in well: enough cells in well; Call: inactive
Gpr160 | Tnf reporter robust z-score: -0.92; fewer than 50 cells in well: enough cells in well; Call: inactive
Gm5108 | Tnf reporter robust z-score: 1.81; fewer than 50 cells in well: enough cells in well; Call: inactive
Lst1 | Tnf reporter robust z-score: -1.1; fewer than 50 cells in well: enough cells in well; Call: inactive

Records listed above marked active (1):
Wac | Tnf reporter robust z-score: 3.5; fewer than 50 cells in well: enough cells in well; Call: active
